From article PMC10648081
These are yes or no findings as the source states them, for the method shown. For part of these data: Binding calls can cover weak binding; strength is not graded here. Tags and fused reporters may be left off the sequences shown.

Chains of the proteins cited; added tags and fusions are not shown. Lines headed by an entry give the natural chain unless they say otherwise; changes in a name come on top.
UniProt Q86T24: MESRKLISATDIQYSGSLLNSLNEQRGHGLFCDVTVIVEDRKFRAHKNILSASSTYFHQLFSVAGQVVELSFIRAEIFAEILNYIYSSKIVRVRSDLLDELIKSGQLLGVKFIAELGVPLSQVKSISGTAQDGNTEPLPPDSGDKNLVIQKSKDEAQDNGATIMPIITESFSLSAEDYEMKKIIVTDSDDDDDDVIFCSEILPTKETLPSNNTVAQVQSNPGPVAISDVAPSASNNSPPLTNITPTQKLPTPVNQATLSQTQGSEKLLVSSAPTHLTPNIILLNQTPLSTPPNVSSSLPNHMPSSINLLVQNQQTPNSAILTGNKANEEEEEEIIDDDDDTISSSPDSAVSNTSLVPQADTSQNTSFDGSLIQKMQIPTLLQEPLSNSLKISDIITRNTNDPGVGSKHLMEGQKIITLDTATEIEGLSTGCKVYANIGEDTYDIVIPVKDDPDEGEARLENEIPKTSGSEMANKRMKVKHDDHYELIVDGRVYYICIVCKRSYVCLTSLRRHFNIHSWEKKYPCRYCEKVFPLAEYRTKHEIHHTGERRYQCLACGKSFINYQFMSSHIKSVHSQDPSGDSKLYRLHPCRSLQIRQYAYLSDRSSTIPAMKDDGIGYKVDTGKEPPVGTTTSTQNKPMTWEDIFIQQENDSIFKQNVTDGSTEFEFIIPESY
UniProt Q9VHM3: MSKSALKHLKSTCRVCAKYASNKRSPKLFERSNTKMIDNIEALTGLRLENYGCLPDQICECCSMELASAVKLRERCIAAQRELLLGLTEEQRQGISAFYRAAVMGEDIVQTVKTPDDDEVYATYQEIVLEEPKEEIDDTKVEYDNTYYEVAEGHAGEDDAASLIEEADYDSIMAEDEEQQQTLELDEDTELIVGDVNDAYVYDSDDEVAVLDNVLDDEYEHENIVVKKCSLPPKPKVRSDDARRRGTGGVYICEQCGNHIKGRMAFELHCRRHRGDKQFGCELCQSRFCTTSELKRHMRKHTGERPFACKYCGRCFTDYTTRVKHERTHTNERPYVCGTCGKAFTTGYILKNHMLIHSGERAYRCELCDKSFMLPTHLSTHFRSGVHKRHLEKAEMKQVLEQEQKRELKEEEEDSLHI

B1: Pita (two-hybrid fusion) (protein, UniProt Q95RQ8 1-683)
chain: MAAKLEVREAMLTEKRVCRFCLTEQKLASIFEENPRVKTTANLPLQIMAITAIEVYAGDGMPGHICLECRLLFEHCYRFKQMCKRAETLLRQYPLTGNWPSPLEKPRAPMTMVASKKLLVVPAKTAEPSETPKKLLNTMAKSSSQVIIEDVQVLESAMVTPRTVAGSSPVPRRSHAYELKVDNNQELSMDDVQSMLEDMASELEKEFPDIPQKASPVKPKVLNKSSIRILNKGPAAPVEPRLATPKVKRDDSGNVAIVTEVLDSDLPLDDQDDPTKNAEKVATDVFPCPDCERSFPLQQLLEIHRLNHTRSRSFQCLLCEKSFFSKYDLAKHNFVHTGERPFKCAICSKAFTRKALLHRHERTHTDVPKFICVYCEKPFLSRQEMEKHAERHQKKRPFQCGVCTKSFAFKQGLERHETVHSTNLPFPCQHCERSFSTASKLARHLVAHAGKRAYPCKYCHKSYMLSHHLSRHLRTHTQTSDASFVCSECKVSYSNYNDLLDHALIHATASLKCPMCRKQIEDIDSVESHMDQHKQSERHACEFCDHIFLTQKCLQRHIEDDHVVEMEPYQNEFEDDGEGEGGVDEKEEHLDDFEDMDNVKQEEFVTEYLEDDALYEDHLDDSDESFTPPPPKQRKTNPPKDAQQSVRQTRSRDAQRITQKTGKNEGKPHHKLERNLKNRRSAK
B2: dCTCF (two-hybrid fusion) (protein, UniProt Q9VS55 1-818)
chain: MPRRTKKDEDPEDLQTFLNNFHKEIEGNSDEKVVNTILEAISAEAIDLDENGAEAGGSKPMEEAEADLDHAEEAEEEEEDDEDKYFIDDEGNCYIKTTPKKQKELQKKLKQAAAKPGKATRSVVSTATNKSINLRPAKSTPKATTSKPPPEPKAISVRPARAAAAKAKQSAMPPPPALVVKVPAPRGRPRKNPVIPKPEPMDLERELEELVDEPDISSMVTELSDYTVDEAAVEAATATLTPNEAEVYEFEDNATTEDENADKKDVDFVLSNKEVKLKTASSTSQNSNASGHKYSCPHCPYTASKKFLITRHSRSHDVEPSFKCSICERSFRSNVGLQNHINTHMGNKPHKCKLCESAFTTSGELVRHTRYKHTKEKPHKCTECTYASVELTKLRRHMTCHTGERPYQCPHCTYASQDMFKLKRHMVIHTGEKKYQCDICKSRFTQSNSLKAHKLIHSVVDKPVFQCNYCPTTCGRKADLRVHIKHMHTSDVPMTCRRCGQQLPDRYQYKLHVKSHEGEKCYSCKLCSYASVTQRHLASHMLIHLDEKPFHCDQCPQAFRQRQLLRRHMNLVHNEEYQPPEPREKLHKCPSCPREFTHKGNLMRHMETHDDSANAREKRRRLKLGRNVRLQKDGTVITLIKDQYVDMDRDQEENEEDDNPESYDLAEIEPENSEAEDADDDVETIVSDPIRQRIKPAPIIINKQARLAASEKQPMIINQRLRSQRGTKTFHIKEEPDNSDFTVEWQGDDGEVMVVELVNGDEEVLVKHEPSANSKISAKNCFGFEDDDDYEEYGDGENEVDGASQEFLQLMDMIEQDS
B3: Su(Hw) (two-hybrid fusion) (protein, UniProt P08970 1-941)
chain: MSASKEGKEKKGKLLGVENISPPKDKRPATRMKLLNDVGAGEDSEASTTTTTSRTPSNKQEKRGSVAGSRIKILNEEILGTPKTEKRGATKSTAPAASTVKILNEKKTPSATVTAVETTKIKTSPSKRKKMEHYVLQAVKSENTKADTTVTVVTEEDDTIDFILADDEEVVPGRIENNNGQEIVVTEDDEDLGEDGDEDGEDSSGKGNSSQTKIKEIVEHVCGKCYKTFRRVQSLKKHLEFCRYDSGYHLRKADMLKNLEKIEKDAVVMEKKDICFCCSESYDTFHLGHINCPDCPKSFKTQTSYERHIFITHSEFSDFPCSICNANLRSEALLALHEEQHKSRGKPYACKICGKDFTRSYHLKRHQKYSSCSSNETDTMSCKVCDRVFYRLDNLRSHLKQHLGTQVVKKPEYMCHTCKNCFYSLSTLNIHIRTHTGEKPFDCDLCDKKFSALVALKKHRRYHTGEKPYSCTVCNQAFAVKEVLNRHMKRHTGERPHKCDECGKSFIQATQLRTHSKTHIRPFPCEQCDEKFKTEKQLERHVKTHSRTKRPVFSCAECKRNFRTPALLKEHMDEGKHSPKQQRSSMRSAVKIMERTDCAICDKNFDSSDTLRRHIRTVHECDPDDIFGVEPHPSKRAKKDIESEEVVPVALNTSAGSLISSQTDGNGVVVREFLVDEGDGAAQTITLENETYTILPLDGAIEGEQLTDEAGVKPEAKKEEAQVSPVVKKEQRKSLAASLAAAIADNLEESCSEDDFSGEILTEEDIKLKENVGKLIDMLVDPPILKKYGWPNAPEETVLCKVIENCGHDLTKGGENYAELDYGSRMREYCKLLFTVVIHNDSIKSLLNNFPIDDVIEYVLGDEDQDEGGLDKDNESHSGDEEAVSVTGETKTNEIREKPEKKEVSAKSEKKEIVGKAVDKDNSEEVVRENKKKPVGEQEKA

What was measured:
[1] = molecular target: T1, CP190 1–245 aa fused to the GAL4 DNA-binding domain (Drosophila melanogaster) (UniProt Q24478); test: two-hybrid; CP190 variants fused to the GAL4 DNA-binding domain (pGBT9), C2H2 proteins fused to the GAL4 activating domain (pGAD424); yeast PJ69-4a; growth on medium without tryptophan, leucine, histidine and adenine, 30 °C, compared after 2-3 days; repeated three times
T1 sequence: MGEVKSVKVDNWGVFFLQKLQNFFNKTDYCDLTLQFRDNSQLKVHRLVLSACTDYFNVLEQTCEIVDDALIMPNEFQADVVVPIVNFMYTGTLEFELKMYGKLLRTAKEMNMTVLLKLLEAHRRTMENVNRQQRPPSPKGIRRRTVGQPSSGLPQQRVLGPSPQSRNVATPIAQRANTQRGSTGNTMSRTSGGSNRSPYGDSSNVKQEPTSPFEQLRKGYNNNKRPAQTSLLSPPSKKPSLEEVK

[2] = molecular target: T2, CP190 309–390 aa fused to the GAL4 DNA-binding domain (Drosophila melanogaster) (UniProt Q24478); test: as above
T2 sequence: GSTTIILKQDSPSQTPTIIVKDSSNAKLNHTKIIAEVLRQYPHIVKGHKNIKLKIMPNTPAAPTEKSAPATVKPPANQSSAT

[3] = molecular target: T3, CP190 309–470 aa fused to the GAL4 DNA-binding domain (Drosophila melanogaster) (UniProt Q24478); test: as above
T3 sequence: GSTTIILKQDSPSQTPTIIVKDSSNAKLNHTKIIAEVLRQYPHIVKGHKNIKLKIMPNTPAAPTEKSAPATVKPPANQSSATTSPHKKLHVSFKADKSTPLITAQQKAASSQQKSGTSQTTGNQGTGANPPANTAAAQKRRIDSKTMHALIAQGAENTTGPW

[4] = molecular target: CP190 BTB domain (two-hybrid fusion) (Drosophila melanogaster) (UniProt Q24478); test: two-hybrid; BTB domains of CP190 and of human Kaiso (cloned in pGBT9 or pGAD424) tested with dCTCF, Su(Hw) and Pita (Supplementary Figure S5); yeast PJ69-4a; growth on medium without tryptophan, leucine, histidine and adenine, 30 °C
[5] = molecular target: human Kaiso BTB domain (two-hybrid fusion) (human) (UniProt Q86T24); test: as above

Molecule	binding [1]	binding [2]	binding [3]	binding [4]	binding [5]
M1BP fused to the GAL4 activating domain (from UniProt Q9VHM3)	binds	no binding	no binding		
Opbp fused to the GAL4 activating domain (Drosophila melanogaster)	binds	binds	binds		
B1				binds	no binding
B2				binds	no binding
B3				binds	no binding
